Results are given in words; binding and its absence hold for the method and conditions named. Binding seen in cells or lysates may run through a third protein. Some results given as binding are weak or reduced against the parent protein; the word gives no strength.
Target: enhancer of zeste homologue 2 (EZH2), overexpression plasmid (UniProt Q15910)
Experiment: co-IP; MDA-MB-231 cells individually transfected with control, HDAC2 or EZH2 plasmid, lysed after 48 h; antibody on magnetic beads, lysate incubated at 4 °C overnight; eluate blotted for EZH2 and HDAC2

Chains of the proteins cited; added tags and fusions are not shown.
UniProt Q15910: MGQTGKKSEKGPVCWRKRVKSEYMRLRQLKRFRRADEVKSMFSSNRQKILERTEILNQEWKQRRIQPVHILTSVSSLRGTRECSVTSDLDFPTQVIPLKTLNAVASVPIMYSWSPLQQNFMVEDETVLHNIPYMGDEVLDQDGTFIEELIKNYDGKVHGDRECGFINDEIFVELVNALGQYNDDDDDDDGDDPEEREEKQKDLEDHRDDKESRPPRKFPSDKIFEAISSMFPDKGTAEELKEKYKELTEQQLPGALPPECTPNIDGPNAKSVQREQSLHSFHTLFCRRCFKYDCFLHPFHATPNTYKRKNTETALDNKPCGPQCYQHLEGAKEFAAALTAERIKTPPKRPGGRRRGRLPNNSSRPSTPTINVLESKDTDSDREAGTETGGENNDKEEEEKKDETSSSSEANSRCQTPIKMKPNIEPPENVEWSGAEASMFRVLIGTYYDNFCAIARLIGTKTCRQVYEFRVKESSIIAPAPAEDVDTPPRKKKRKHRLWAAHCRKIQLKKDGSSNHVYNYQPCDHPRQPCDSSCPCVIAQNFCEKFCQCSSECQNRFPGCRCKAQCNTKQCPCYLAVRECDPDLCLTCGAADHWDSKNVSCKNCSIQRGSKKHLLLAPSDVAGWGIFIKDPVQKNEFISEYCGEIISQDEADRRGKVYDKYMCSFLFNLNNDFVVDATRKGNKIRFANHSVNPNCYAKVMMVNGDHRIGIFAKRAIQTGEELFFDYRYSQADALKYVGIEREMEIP
UniProt Q92769: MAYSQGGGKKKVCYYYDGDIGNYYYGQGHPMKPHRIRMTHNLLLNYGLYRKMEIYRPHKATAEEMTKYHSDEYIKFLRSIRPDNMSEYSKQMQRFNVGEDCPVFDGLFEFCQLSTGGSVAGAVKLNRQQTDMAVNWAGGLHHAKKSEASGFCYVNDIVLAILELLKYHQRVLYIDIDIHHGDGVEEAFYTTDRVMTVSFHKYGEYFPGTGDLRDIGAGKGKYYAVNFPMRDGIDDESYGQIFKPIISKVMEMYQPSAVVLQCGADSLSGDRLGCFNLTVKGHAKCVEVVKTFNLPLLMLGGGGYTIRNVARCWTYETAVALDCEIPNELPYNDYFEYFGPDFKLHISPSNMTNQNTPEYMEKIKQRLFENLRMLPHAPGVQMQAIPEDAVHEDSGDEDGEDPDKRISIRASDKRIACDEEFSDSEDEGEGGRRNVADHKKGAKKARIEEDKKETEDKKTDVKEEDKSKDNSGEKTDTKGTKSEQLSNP

binding: binds
Substance: histone deacetylase 2 (HDAC2), overexpression plasmid (from UniProt Q92769 1-488)

— article PMC9329997
